These are yes or no findings as the source states them, for the method shown. Some binding calls cover weakened binding; strength is not graded here. For some of these results: Where a sequence is shown, tags or fusion partners need not be part of it.

Chains of the proteins cited; added tags and fusions are not shown. Lines headed by an entry give the natural chain unless they say otherwise; changes in a name come on top. A line that says so, or that is headed by a name, gives the form on record, which may keep a tag or linker. Residues count along the entry.
GST-FCHO2 linker wt (residues 314 to 444) (Q0JRZ9, residues 314-444): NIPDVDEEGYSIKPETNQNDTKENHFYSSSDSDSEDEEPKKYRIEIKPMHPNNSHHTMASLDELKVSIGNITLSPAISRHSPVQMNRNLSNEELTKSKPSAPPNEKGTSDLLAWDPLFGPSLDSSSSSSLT
GST-FCHO2 phosphomimetic linker (residues 314 to 444) (Q0JRZ9, form named): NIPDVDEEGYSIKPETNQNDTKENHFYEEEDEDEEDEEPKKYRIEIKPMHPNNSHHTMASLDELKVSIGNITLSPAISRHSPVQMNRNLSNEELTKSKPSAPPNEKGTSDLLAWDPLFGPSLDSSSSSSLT
His6-MBP-Cμ2 wt (μ2 residues 160 to 435) (P84092, residues 160-435): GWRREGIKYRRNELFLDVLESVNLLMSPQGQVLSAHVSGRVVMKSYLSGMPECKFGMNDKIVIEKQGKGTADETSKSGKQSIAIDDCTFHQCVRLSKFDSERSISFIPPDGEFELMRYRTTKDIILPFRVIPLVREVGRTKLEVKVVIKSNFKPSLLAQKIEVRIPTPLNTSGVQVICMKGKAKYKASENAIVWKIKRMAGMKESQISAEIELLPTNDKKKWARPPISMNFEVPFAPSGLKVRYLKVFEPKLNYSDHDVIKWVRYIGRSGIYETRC
His6-MBP-Cμ2 BR4 mutant (K339A/K341A/K343A/K345A) (P84092, form named): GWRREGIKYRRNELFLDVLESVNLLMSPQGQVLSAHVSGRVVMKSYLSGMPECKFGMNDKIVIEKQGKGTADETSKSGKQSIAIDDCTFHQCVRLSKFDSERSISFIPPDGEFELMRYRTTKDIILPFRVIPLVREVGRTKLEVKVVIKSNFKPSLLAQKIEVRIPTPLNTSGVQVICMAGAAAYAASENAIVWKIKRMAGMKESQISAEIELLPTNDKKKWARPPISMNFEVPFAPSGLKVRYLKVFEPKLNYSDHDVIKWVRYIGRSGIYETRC

What all share (assay): pull-down; GST or GST-fusion protein immobilised on GSH Sepharose; recombinant AP2 core or His6-MBP-Cμ2 added; supernatant and pellet by SDS-PAGE, Coomassie or anti-μ2 blot; near-physiological conditions; both purified
Assay [1] deals with GST-FCHO2 phosphomimetic linker (residues 314 to 444) (human) (UniProt Q0JRZ9).
The target of assay [2] is GST-FCHO2 linker wt (residues 314 to 444) (human) (UniProt Q0JRZ9).
For assay [3], the target named is T1, GST-SERINC3-L10 (residues 354 to 404) (UniProt Q13530).
T1 sequence: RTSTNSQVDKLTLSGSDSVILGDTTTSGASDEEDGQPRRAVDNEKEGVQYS

For “His6-MBP-Cμ2 wt (μ2 residues 160 to 435) (from UniProt P84092 160-435) (domain or fragment)”, the binding entry in assay [1], in assay [2] and in assay [3] was “binds” throughout.

Turning to “His6-MBP-Cμ2 BR4 mutant (K339A/K341A/K343A/K345A) (from UniProt P84092 160-435) (domain or fragment)”, the binding result in assay [1] is given as “binds”.

The values above are taken from publication PMC9054013, “FCHO controls AP2’s initiating role in endocytosis through a PtdIns(4,5)P2-dependent switch” (Science Advances, 2022).
